Data as given in PubChem BioAssay AID1259266 (Sanger Institute, 2017).
This is a random part of 794 reagents tested. 16 of all reagents (2%) count as active. 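Calls reflect knock-down alone, not drug synergy; viability seems capped at 1 and z-scores at 0.585.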 Not all columns of the deposit are shown. Not stated in the record: the amount of reagent, the time to read-out.

Test: 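Find knock-downs that kill LS123 cells or act with anchor drugs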 (primary screen)
System: LS123 human colorectal cancer cells
Reagents: siRNA pool against human genes
Conditions: anchor drugs BYL719 (1 µM), cetuximab (5 µg/ml) or trametinib (10 nM), each chosen to barely slow growth alone; DMSO vehicle as the drug-free arm
Measurement: 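Viability relative to non-targeting control pools, replicate mean, with a robust z-score for knock-down alone and synergy scores for each anchor drug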
Reading the numbers: robust z-score, knock-down alone: higher = more cells surviving after knock-down
Call rule: 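a knock-down counts as essential if its z-score without drug is under -3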
Meaning of the calls: active = essential (knock-down alone cuts viability); inactive = no change

| Gene | robust z-score, knock-down alone | call |
| --- | --- | --- |
| MARK2 (GeneID 2011) | -1 | inactive |
| HK1 (GeneID 3098) | 0.585 | inactive |
| NIM1K (GeneID 167359) | 0.585 | inactive |
| BRSK1 (GeneID 84446) | 0.585 | inactive |
| TAF1 (GeneID 6872) | 0.585 | inactive |
| GATA3 (GeneID 2625) | -0.0819 | inactive |

The list goes on; the last 2 above are carried over.
| Gene | robust z-score, knock-down alone | call |
| --- | --- | --- |
| TAF1 (GeneID 6872) | 0.585 | inactive |
| GATA3 (GeneID 2625) | -0.0819 | inactive |
| ALDH18A1 (GeneID 5832) | 0.585 | inactive |
| MAGI3 (GeneID 260425) | 0.585 | inactive |
| PMVK (GeneID 10654) | 0.0903 | inactive |
| PKDCC (GeneID 91461) | 0.585 | inactive |
| PLK1 (GeneID 5347) | -3.4 | active |
| STK17B (GeneID 9262) | 0.134 | inactive |
| BMPR1A (GeneID 657) | 0.275 | inactive |
| EFNB3 (GeneID 1949) | -1.48 | inactive |
| MAP3K21 (GeneID 84451) | 0.585 | inactive |
| SPHK2 (GeneID 56848) | 0.585 | inactive |
| CKB (GeneID 1152) | 0.585 | inactive |
| AURKB (GeneID 9212) | -0.618 | inactive |
| NUP62 (GeneID 23636) | -0.126 | inactive |
| VRK3 (GeneID 51231) | 0.585 | inactive |
